# Test results published in PMC12040169 (PLOS Biology, 2025).
# Some of the results follow.
# Test system: T1, CTL2-GFP (C. trachomatis L2/434/Bu, GFP-expressing)
# T1 construct: L2/434/Bu, GFP-expressing
# Parameters: species or system HeLa; Intracellular C. trachomatis growth in HeLa cells, bulk GFP fluorescence relative to DMSO
# Conditions: bulk GFP, single well; 28.5 h, 10 µM; inhibitor
row,SMILES,% of control remaining
1,O=C(Cc1ccsc1)N1CCn2nc(C(O)Cc3ccccc3)cc2C1 (stereo not drawn) [CBK306547],160.316%
2,O=C(COc1ccc2ccccc2c1)Oc1ccc2ccccc2c1 [CBK264885],100%
3,Cc1nc(N)nc(N[C@@H]2CCOC[C@H]2OCCN(C)C)c1Cl [CBK307024],76.9555%
4,O=C(O)c1ccc(Nc2ncnc3c2oc2ccccc23)cc1 [CBK269825C],123.484%
5,CCN1CCCC1CN(Cc1cnn(C)c1)Cc1ccco1 (stereo not drawn) [CBK282470],112.714%
6,C/C=N\n1c(CO)nnc1CO [CBK034325],121.263%
7,O=C(NCC(c1ccccc1)c1c[nH]c2ccccc12)Nc1ccc(Cl)cc1 (stereo not drawn) [CBK269147],106.259%
8,O=C(NC1Cc2ccccc2C1)c1nc2ccccc2[nH]1 [CBK200361],135.465%
9,Cc1cc(C(=O)N2CCN3C(=O)CCC32C)c(C2CC2)o1 (stereo not drawn) [CBK282092],121.113%
10,Cc1ccc(O)c(NC(=O)COc2ccc(Cl)cc2)c1 [CBK268670],97.3603%
11,Cc1ccc([N+](=O)[O-])cc1NC(=O)C1Cc2ccccc2CN1C(=O)OCc1ccccc1 (stereo not drawn) [CBK262463],69.7304%
12,CN(C)C(=O)N1CCN(C(=O)c2cn(Cc3cccc(S(C)(=O)=O)c3)nn2)CC1 [CBK160969T],113.346%
13,COc1cnc(-c2ccccc2OC)c(NC(C)=O)n1 [CBK145259],121.216%
14,O=C(CN1CCN(c2cc(-c3ccsc3)ncn2)CC1)N1CCCC1 [CBK091074],184.759%
15,Cc1nc(C2CCCN(C(=O)c3ccncc3)C2)c2sccn12 (stereo not drawn) [CBK285199],106.926%
16,O=C(CN1CCC(c2nc3ccccc3[nH]2)CC1)Nc1ccc(F)cc1 [CBK287720],95.46%
17,COCCNc1nc(-c2cccc(F)c2)cn2ccnc12 [CBK066465],216.519%
18,O=[N+]([O-])c1ccccc1NCCNS(=O)(=O)c1ccccc1 [CBK263552],100.955%
19,COc1ccccc1-c1cnc2[nH]c(=O)n(CC3CCOCC3)c2n1 [CBK064286],99.5792%
20,CC(=O)Nc1ccc2n(c1=O)C[C@H]1C[C@@H]2CN(C(=O)COc2ccccc2)C1 [CBK289074],133.258%
21,COc1ccc(-c2nc3ccc(OC)cc3[nH]2)cc1 [CBK000126],132.673%
22,Cn1c(N2CC[C@H](O)C2)nc2cc(C(=O)NC3CCNCC3)ccc21 [CBK306873],138.684%
23,O=S(=O)(Nc1nc2c(s1)CCCC2)c1ccc(Br)cc1 [CBK097787],98.9724%
24,CN(C)CCn1ccnc1C1CCCN(C(=O)Cc2cccc(Cl)c2)C1 (stereo not drawn) [CBK307272],124.937%
25,COCCc1noc(CC2CCN(c3nc(C#N)c(Cl)s3)CC2)n1 [CBK304205],112.666%
26,Cc1cccn2cc(CC(=O)NCCNC(=O)OC(C)(C)C)nc12 [CBK306122],139.364%

# Structural class, those above with an aryl methoxy group
row,SMILES,% of control remaining
13,COc1cnc(-c2ccccc2OC)c(NC(C)=O)n1 [CBK145259],121.216%
19,COc1ccccc1-c1cnc2[nH]c(=O)n(CC3CCOCC3)c2n1 [CBK064286],99.5792%
21,COc1ccc(-c2nc3ccc(OC)cc3[nH]2)cc1 [CBK000126],132.673%

# Next part.

row,SMILES,% of control remaining
1,CCCCOc1ccc(NC(=O)NCCC2=CCCCC2)cc1 [CBK043751],51.797%
2,Cn1c(=O)c2c(nc(CN3CCC(Cc4ccccc4)CC3)n2CCN2CCOCC2)n(C)c1=O [CBK269380],91.2495%
3,COc1ccc(-c2cc(C(=O)Nc3ccc4ncccc4c3)cnc2-c2ccccc2)cc1 [CBK036623],111.462%
4,CC1CCN(CCOCC(O)CNS(=O)(=O)O)CC1 (stereo not drawn) [CBK261454N],88.1542%
5,Cc1cccn2cc(CCNC(=O)N3CCOCC3C3CC3)nc12 (stereo not drawn) [CBK304033],103.632%
6,CC(C)N(Cc1nc(-c2ccc(Cl)cc2)no1)S(=O)(=O)c1cccc([N+](=O)[O-])c1 [CBK267050],173.654%
7,Cc1ccc(NS(=O)(=O)c2cc(C(=O)O)ccc2Cl)cc1S(=O)(=O)N1CCOCC1 [CBK296954],114.219%
8,O=C(c1cccc(F)c1)N1CCCC1c1n[nH]cc1-c1ccncc1 (stereo not drawn) [CBK283437],143.04%
9,COC(=O)CCc1sc(NC(=O)CSCC(=O)O)nc1-c1ccc(OC)cc1 [CBK296116],158.885%
10,O=S(=O)(c1ccccc1)n1cc2c3c(cccc31)CN(CCO)C2 [CBK156333T],101.012%
11,CN1CCN(C(=O)c2ccc(-c3cncc(-c4cc5ccccc5[nH]4)n3)c(F)c2)CC1 [CBK144906],125.912%
12,Cc1cccc(CN(CC(C)(C)CN)C(=O)Nc2ccc(-c3ccccc3)cc2)n1 [CBK002453C],83.1884%
13,O=C(Nc1ccc(F)c(F)c1)NC1CCC2CN(CCOc3ccccc3)CC2C1 (stereo not drawn) [CBK083365T],0%
14,CCc1nn(CC(=O)N2CCCC2)c(=O)c2cc3sccc3n12 [CBK284028],166.652%
15,CCOC(=O)c1sc(NS(=O)(=O)c2cccc(Cl)c2C)nc1-c1ccccc1 [CBK000749],127.13%
16,O=C(CS(=O)(=O)Cc1ccccc1)Nc1ccc(S(=O)(=O)N2CCOCC2)cc1 [CBK266658],121.348%
17,O=[N+]([O-])c1ccc(CN2CCN(c3nccnc3OCc3ccc(Cl)c(Cl)c3)CC2)cc1 [CBK083076T],123.76%
18,O=C(CCc1ccccc1)NC(=S)Nc1ccc(-c2nc3ccccc3[nH]2)cc1 [CBK267472],122.664%
19,Cc1nc(SCC(=O)O)nc(O)c1Oc1ccccc1 [CBK263621],95.0973%
20,COc1ccc(C)cc1NC(=O)N1CCC2(CC1)CC(=O)c1ccc(C)cc1O2 [CBK166520],163.921%
21,N#CCCCN1CCC(Oc2nccnc2OCc2cccc(OCc3ccccc3)c2)CC1 [CBK161572],96.2425%
22,CCCS(=O)(=O)N1CCCC(Cc2ccc(F)cc2F)(C(=O)OCC)C1 (stereo not drawn) [CBK307221],119.84%
23,COCc1cn([C@H]2CO[C@H]3[C@@H]2OC[C@@H]3NC(=O)Nc2ccc(OC)cc2)nn1 [CBK289495],115.464%
24,Cc1cc(-c2cc(=O)n(Cc3ccc(F)cc3)nc2C2CC2)on1 [CBK284364],39.4538%
25,CC(C)(C)C1CCC(OC(=O)Cn2nnc3ccccc3c2=O)CC1 (stereo not drawn) [CBK306408],99.2852%
26,Nc1ncn(Cc2ccccc2)c2nc(SCc3ccccc3)nc1-2 [CBK025744],133.536%

row,SMILES,% of control remaining
1,NC(=O)C1(N2CCCCC2)CCN(Cc2nc(O)c3ccccc3n2)CC1 [CBK265896],128.686%
2,c1ccc(CC2CCN(CCc3c[nH]c4ccccc34)CC2)cc1 [CBK126385],134.024%
3,Cc1c(Cc2ccccc2)sc(NC(=O)c2cccnc2)c1C(N)=O [CBK269851],109.579%
4,CC(C)Cn1c(=O)c(C(=O)Nc2cccc(Cl)c2)c(O)c2ccccc21 [CBK159967],160.451%
5,CC(=O)N[C@@H](Cc1c[nH]cn1)C(=O)N1CC[C@H]2NC(=O)[C@H](Cc3ccccc3)NC(=O)C3(C/C=C/C[C@H]2C1)CCOCC3 [CBK292206],99.2457%
6,Cc1ccc(C(Cn2cncc2-c2cn(C)nc2C)N(C)C)cc1 (stereo not drawn) [CBK281896],139.66%
7,Cc1ncc2c(n1)CCCC2NC(=O)c1ccccc1Cn1cncn1 (stereo not drawn) [CBK306381],93.1199%
8,NCCCOc1cc(N2CCCC2)ncn1 [CBK115285],114.967%
9,Cc1cc(C)cc(Oc2nccn3c(=O)[nH]nc23)c1 [CBK288451],124.421%
10,CC1CCc2c(sc(NC(=O)c3nc4ncccn4n3)c2C(N)=O)C1 (stereo not drawn) [CBK267631],123.845%
11,Cc1cc([N+](=O)[O-])nn1CCCC(=O)Nc1cccc(O)c1 [CBK268747],104.589%
12,O=C(O)c1cccc(S(=O)(=O)Nc2ccccc2C(=O)NCc2ccccc2)c1 [CBK296697],147.704%
13,Cc1cc(C[C@@H]2COC[C@H]2NCc2ccc(Cl)c(Cl)c2)on1 [CBK285400],126.394%
14,CCCc1ccc(S(=O)(=O)Nc2nc(-c3cccc([N+](=O)[O-])c3)cs2)cc1 [CBK000987],110.033%
15,Cc1cc(C)n2ncc(C(=O)N3CCCCC3c3ccccn3)c2n1 (stereo not drawn) [CBK307257],120.152%
16,CCCN1CCCC(c2ccccc2O)C1 (stereo not drawn) [CBK024365G],109.01%
17,COc1ccccc1-c1nnc2sc(-c3cnccn3)nn12 [CBK268428],125.915%
18,COc1cc(CNc2cc(-c3ccc(F)c(Cl)c3)nc3ccnn23)cc(OC)c1OC [CBK037209],95.8728%
19,CN1CCN(C(=O)CCc2nc(-c3ccc(Cl)cc3)no2)CC1 [CBK268304],116.803%
20,O=C(O)CC(Cc1ccccc1)(C(=O)O)c1ccccc1 (stereo not drawn) [CBK287133],116.287%
21,O=C1CC(c2ccc(S(=O)(=O)NCc3ccccc3)cc2)CN1 (stereo not drawn) [CBK270155],136.792%
22,COc1ccc(-c2cc(C(F)(F)F)nc(SCC(=O)NN3CCN(C)CC3)n2)cc1 [CBK266115],123.638%
23,COc1ccc(CN2CCN(c3ccc(F)cc3)CC2)cc1OCc1ccccc1 [CBK261894],112.694%
24,O=C1COc2ccccc2C/C=C/C[C@H]2CN(C(=O)c3noc4c3CCCC4)CC[C@H]2N1 [CBK292099],82.2855%
25,COC(=O)c1cccc2c1ncc1c(=O)nc(N)sc12 [CBK291214],113.329%
26,CC(=O)N1CCC2(CCCC[C@H]3CN(Cc4coc(C)n4)CC[C@@H]3NC(=O)CNC2=O)CC1 [CBK292165],158.981%
